Laboratory results reported in patent US20020119178A1 (priority 2001, published 2002).
Starred links: 1 amine or outer side, 2 acyl side, 3 side chain; linkers in the order of their positions; H or OH if unused. Positions of bridges follow the written chain, without caps; N, C: chain ends. Non-standard residues stand in square brackets, D forms with d. Residues, ends and D or L forms follow the SMILES beside them. Chains are numbered I, II in the order given. Actinocin(9to1) = Cc1c2oc3c(C)ccc(C(=O)[*:1])c3nc-2c(C(=O)[*:2])c(N)c1=O; NMeV = CN[C@H](C(=O)O)C(C)C; Sar = CNCC(=O)O

Details: for amount of drug retained following two 5-minute washings: 10 μg tritiated actinomycin D on discs functionalized with the diazonium molecule
Method: In FIG. 1, the electrochemical cell 10 is a standard three-electrode setup. A saturated Calomel electrode (SCE) was used as the reference electrode 12 and the counter electrode 14 was a circular platinum foil (3 cm^2). A 316L stainless steel disk (0.8 cm^2 area) connected to a platinum wire 16 was used as the working electrode 18. The cell was filled with an aqueous electrodeposition solution composed of 5 mM sulfuric acid and 20 mM of an aryldiazonium-containing molecule as described in FIG. 2 for the cyclic voltammetry electrochemical process. The electrodeposition of the aryldiazonium onto the stainless steel device was applied using 2 consecutive cyclic scans ranging from −0.5 V to −1.75 V relatively to the SCE reference electrode. The current-voltage response was followed on a XY recorder. Following electrodeposition, the device was consecutively washed with water and acetonitrile to remove impurities.
FIG. 5 illustrates the necessity of the presence of a molecule containing a diazonium moiety to retain tritiated actinomycin D deposited on the surface of stainless steel 316L discs. In this experiment, stainless steel 316L discs, which are made out of the same material as the stainless steel stents and other endovascular devices, are either functionalized with 4-bromobenzenediazonium or left bare. The discs are then exposed to a solution containing 30 μg of tritiated actinomycin D whereas the solvent is acetonitrile or ethanol. Following dipping, the discs are left to dry at room temperature until the solvent evaporates. The discs are first washed in deionized water for 5 minutes followed by a 5-minute wash in a physiologic solution. The discs are then counted in a scintillation counter.
FIG. 6 illustrates the loading and retention capacity of tritiated actinomycin D immobilized as described previously onto stainless steel 316L discs, with the exception however that water was also used as solvent for immobilizing tritiated actinomycin D. Following immobilization, the discs were first washed for 5 minutes in deionized water followed by a 5-minute wash in a physiologic solution. The loading of tritiated actinomycin D onto the stainless steel discs varied according of the type of solvent used: acetonitrile>ethanol>water.
FIG. 7 illustrates the effect of varying concentrations of the 4-bromobenzenediazonium solution on the loading and retention of 30 μg of tritiated actinomycin D following 8 days of elution in a physiological medium. Stainless steel 316L discs were exposed to varying concentrations of 4-bromobenzenediazonium solution before electrodeposition with the set-up as described in FIG. 1. Actinomycin D loading in the ethanol solution increased 1.6 fold, from 4324±329 for 0.02 M to 7146±80 for 20 mM. However, the residual tritiated actinomycin D remaining on the discs following 8 days of elution was increased 7.3 fold when comparing the 0.02 mM 4-bromobenzenediazonium concentration (348±52) versus 20 mM (2539±43).
FIG. 8 illustrates the retention profiles of actinomycin D loaded onto a stainless steel disk with any one of the molecules having a diazonium moiety illustrated in FIG. 2.

In the case of Cc1c2oc3c(C)ccc(C(=O)N[C@@H]4C(=O)N[C@H](C(C)C)C(=O)N5CCC[C@H]5C(=O)N(C)CC(=O)N(C)[C@@H](C(C)C)C(=O)O[C@@H]4C)c3nc-2c(C(=O)N[C@@H]2C(=O)N[C@H](C(C)C)C(=O)N3CCC[C@H]3C(=O)N(C)CC(=O)N(C)[C@@H](C(C)C)C(=O)O[C@@H]2C)c(N)c1=O [actinomycin D] (I: T[dV]P[Sar][NMeV] / II: T[dV]P[Sar][NMeV]; ester I:1-I:C, II:1-II:C; linker I:N-II:N via Actinocin(9to1)), the “increase of loading, 20 mM versus 0.02 M 4-bromobenzenediazonium” value (ethanol solution) is reported as 1.6 fold and the “increase of residual drug after 8 days of elution, 20 mM versus 0.02 mM 4-bromobenzenediazonium” value (physiological medium) is reported as 7.3 fold.
For CCCCCCCCCCOc1ccc([N+]#N)cc1.[Cl-] [molecule 1, 4-decycloxyphenyl diazonium chloride], the “amount of drug retained following two 5-minute washings” value (“amount” for short) was “significantly lower”.
With CCOC(=O)c1cc2ccccc2cc1[N+]#N.F[B-](F)(F)F [molecule 2, 3-ethoxycarbonyl-naphtalene-2-diazonium tetrafluoroborate] the “amount” value was “similar”.
For F[B-](F)(F)F.N#[N+]c1cc(Cl)cc(Cl)c1 [molecule 3, 3-5-dichlorophenyl diazonium tetrafluoroborate], the “amount” value was “similar”.
In the case of Cc1cc([N+]#N)c(Cl)cc1NC(=O)c1ccccc1.[Cl-] [molecule 4, 2-chloro-4-benzamido-5-methylbenzene diazonium chloride], the “amount” value is reported as “similar”.
For F[B-](F)(F)F.N#[N+]c1ccc(Br)cc1 [molecule 5, 4-bromobenzenediazonium tetrafluoroborate], the “amount” value was “similar”.
